Laboratory results published in paper doi:10.1101/2025.06.10.658803.
No constants are given. Whether binding was seen depends on the method and setting. In cells and extracts the contact can be indirect. Some binding calls cover weakened binding; strength is not graded here. Where a sequence is shown, tags or fusion partners need not be part of it.

Sequences of proteins named here, by UniProt entry; tags and fusion partners are left off. A change or cut given only in a name is not applied to a line headed by its entry. A line that says so, or that is headed by a name, gives the form on record, which may keep a tag or linker.
LAMP2B-HA (P13473, form named): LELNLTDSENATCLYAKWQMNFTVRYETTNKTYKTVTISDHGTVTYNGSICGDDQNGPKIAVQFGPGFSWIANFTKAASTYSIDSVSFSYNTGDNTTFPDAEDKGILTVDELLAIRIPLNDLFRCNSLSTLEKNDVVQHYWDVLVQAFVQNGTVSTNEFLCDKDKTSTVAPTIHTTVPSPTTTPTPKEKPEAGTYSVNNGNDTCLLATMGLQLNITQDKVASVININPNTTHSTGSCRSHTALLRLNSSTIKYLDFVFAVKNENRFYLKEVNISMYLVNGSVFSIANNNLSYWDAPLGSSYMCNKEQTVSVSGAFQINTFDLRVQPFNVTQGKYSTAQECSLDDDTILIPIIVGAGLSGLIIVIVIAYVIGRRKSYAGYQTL

Target: LAMP2B-HA (UniProt P13473)
Experiment: co-IP

B1: FLAG-YTHDF3 (protein, UniProt Q7Z739 1-585)
chain: MSATSVDQRPKGQGNKVSVQNGSIHQKDAVNDDDFEPYLSSQTNQSNSYPPMSDPYMPSYYAPSIGFPYSLGEAAWSTAGDQPMPYLTTYGQMSNGEHHYIPDGVFSQPGALGNTPPFLGQHGFNFFPGNADFSTWGTSGSQGQSTQSSAYSSSYGYPPSSLGRAITDGQAGFGNDTLSKVPGISSIEQGMTGLKIGGDLTAAVTKTVGTALSSSGMTSIATNSVPPVSSAAPKPTSWAAIARKPAKPQPKLKPKGNVGIGGSAVPPPPIKHNMNIGTWDEKGSVVKAPPTQPVLPPQTIIQQPQPLIQPPPLVQSQLPQQQPQPPQPQQQQGPQPQAQPHQVQPQQQQLQNRWVAPRNRGAGFNQNNGAGSENFGLGVVPVSASPSSVEVHPVLEKLKAINNYNPKDFDWNLKNGRVFIIKSYSEDDIHRSIKYSIWCSTEHGNKRLDAAYRSLNGKGPLYLLFSVNGSGHFCGVAEMKSVVDYNAYAGVWSQDKWKGKFEVKWIFVKDVPNNQLRHIRLENNDNKPVTNSRDTQEVPLEKAKQVLKIIATFKHTTSIFDDFAHYEKRQEEEEAMRRERNRNKQ
  binding: binds weakly
